These are yes or no findings as the source states them, for the method shown. Binding seen in cells or lysates may run through a third protein. Some binding calls cover weakened binding; strength is not graded here.
B1: Forkhead box protein P1 (FOXP1) (human, endogenous) (protein, UniProt Q9H334 1-677)
chain: MMQESGTETKSNGSAIQNGSGGSNHLLECGGLREGRSNGETPAVDIGAADLAHAQQQQQQALQVARQLLLQQQQQQQVSGLKSPKRNDKQPALQVPVSVAMMTPQVITPQQMQQILQQQVLSPQQLQVLLQQQQALMLQQQQLQEFYKKQQEQLQLQLLQQQHAGKQPKEQQQVATQQLAFQQQLLQMQQLQQQHLLSLQRQGLLTIQPGQPALPLQPLAQGMIPTELQQLWKEVTSAHTAEETTGNNHSSLDLTTTCVSSSAPSKTSLIMNPHASTNGQLSVHTPKRESLSHEEHPHSHPLYGHGVCKWPGCEAVCEDFQSFLKHLNSEHALDDRSTAQCRVQMQVVQQLELQLAKDKERLQAMMTHLHVKSTEPKAAPQPLNLVSSVTLSKSASEASPQSLPHTPTTPTAPLTPVTQGPSVITTTSMHTVGPIRRRYSDKYNVPISSADIAQNQEFYKNAEVRPPFTYASLIRQAILESPEKQLTLNEIYNWFTRMFAYFRRNAATWKNAVRHNLSLHKCFVRVENVKGAVWTVDEVEFQKRRPQKISGNPSLIKNMQSSHAYCTPLNAALQASMAENSIPLYTTASMGNPTLGNLASAIREELNGAMEHTNSNESDSSPGRSPMQAVHPVHVKEEPLDPEEAEGPLSLVTTANHSPDFDHDRDYEDEPVNEDME

The chains behind the UniProt entries cited, without tags or fusion partners.
UniProt Q4JK59: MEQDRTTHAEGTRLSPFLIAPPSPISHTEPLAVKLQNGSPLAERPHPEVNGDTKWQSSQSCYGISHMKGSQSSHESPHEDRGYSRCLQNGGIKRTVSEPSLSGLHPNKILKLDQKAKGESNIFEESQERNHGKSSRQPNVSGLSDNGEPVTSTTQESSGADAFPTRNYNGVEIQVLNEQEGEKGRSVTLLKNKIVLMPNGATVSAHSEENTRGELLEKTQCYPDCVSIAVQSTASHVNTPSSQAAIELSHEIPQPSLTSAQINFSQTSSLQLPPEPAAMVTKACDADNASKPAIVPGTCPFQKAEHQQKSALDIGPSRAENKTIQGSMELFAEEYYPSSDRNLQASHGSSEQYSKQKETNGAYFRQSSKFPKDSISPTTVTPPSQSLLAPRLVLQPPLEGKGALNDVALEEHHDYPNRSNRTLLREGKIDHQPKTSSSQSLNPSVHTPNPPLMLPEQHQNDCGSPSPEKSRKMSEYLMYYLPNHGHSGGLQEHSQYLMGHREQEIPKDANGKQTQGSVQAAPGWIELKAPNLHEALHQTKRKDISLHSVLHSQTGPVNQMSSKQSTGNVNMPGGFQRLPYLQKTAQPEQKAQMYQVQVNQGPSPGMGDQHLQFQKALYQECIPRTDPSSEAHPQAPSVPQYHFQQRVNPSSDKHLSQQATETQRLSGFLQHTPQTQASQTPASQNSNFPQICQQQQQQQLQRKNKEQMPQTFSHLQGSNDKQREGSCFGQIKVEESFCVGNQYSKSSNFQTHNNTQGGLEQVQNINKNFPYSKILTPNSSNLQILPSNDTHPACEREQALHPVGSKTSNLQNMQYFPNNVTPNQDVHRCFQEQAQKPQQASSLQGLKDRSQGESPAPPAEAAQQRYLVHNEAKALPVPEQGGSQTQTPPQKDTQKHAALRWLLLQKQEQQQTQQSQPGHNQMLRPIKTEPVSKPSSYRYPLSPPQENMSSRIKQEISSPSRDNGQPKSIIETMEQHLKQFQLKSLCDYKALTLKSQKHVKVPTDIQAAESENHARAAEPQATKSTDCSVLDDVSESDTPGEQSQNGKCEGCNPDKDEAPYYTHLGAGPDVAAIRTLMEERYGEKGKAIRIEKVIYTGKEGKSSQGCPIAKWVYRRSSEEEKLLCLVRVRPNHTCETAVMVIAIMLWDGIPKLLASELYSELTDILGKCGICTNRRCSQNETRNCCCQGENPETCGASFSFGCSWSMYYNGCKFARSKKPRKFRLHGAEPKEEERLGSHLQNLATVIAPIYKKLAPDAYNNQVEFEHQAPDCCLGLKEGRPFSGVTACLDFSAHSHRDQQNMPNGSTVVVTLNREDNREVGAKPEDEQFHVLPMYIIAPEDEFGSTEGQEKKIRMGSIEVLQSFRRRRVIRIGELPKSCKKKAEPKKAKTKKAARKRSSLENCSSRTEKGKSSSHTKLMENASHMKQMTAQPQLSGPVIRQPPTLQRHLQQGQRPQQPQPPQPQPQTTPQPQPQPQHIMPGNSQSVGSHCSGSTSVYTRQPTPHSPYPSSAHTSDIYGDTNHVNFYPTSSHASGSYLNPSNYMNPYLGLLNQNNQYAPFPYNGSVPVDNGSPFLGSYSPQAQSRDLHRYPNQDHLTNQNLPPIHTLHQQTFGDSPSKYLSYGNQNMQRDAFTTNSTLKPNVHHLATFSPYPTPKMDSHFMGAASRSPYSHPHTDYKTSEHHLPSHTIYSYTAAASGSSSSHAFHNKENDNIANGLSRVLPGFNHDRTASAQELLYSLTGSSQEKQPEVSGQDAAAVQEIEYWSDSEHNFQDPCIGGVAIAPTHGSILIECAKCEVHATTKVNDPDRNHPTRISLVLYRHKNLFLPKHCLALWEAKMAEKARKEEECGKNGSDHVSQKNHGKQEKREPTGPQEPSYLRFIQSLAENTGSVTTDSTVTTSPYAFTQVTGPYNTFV
UniProt P58462: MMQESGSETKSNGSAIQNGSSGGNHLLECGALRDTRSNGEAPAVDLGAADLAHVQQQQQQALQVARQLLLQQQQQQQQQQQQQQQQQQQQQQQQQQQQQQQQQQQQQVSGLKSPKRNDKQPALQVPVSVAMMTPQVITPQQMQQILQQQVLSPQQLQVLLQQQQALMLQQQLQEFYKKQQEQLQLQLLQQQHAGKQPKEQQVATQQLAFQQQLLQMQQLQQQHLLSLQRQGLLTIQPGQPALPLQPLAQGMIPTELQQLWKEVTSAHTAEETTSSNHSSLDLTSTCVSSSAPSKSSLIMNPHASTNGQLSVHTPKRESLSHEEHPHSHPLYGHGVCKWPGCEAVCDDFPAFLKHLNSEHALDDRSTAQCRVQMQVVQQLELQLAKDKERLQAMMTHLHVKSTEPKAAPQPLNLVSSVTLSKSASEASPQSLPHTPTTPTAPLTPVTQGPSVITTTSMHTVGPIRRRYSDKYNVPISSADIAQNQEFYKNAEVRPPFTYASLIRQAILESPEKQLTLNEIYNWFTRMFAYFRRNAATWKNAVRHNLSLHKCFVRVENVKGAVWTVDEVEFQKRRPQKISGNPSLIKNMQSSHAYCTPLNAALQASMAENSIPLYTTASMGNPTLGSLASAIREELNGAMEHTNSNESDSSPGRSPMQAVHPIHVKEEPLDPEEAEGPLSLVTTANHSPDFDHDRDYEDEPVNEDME

Key:
[1] = biological target: TET2 (mouse, endogenous) (mouse (endogenous in mouse mammary epithelial cells)) (UniProt Q4JK59); assay: co-IP; reciprocal co-immunoprecipitation of endogenous proteins from WT mouse mammary epithelial cells with anti-TET2 and anti-FOXP1, standard protocol, immunoblot
[2] = biological target: TET2 (human, endogenous) (human (endogenous in MCF12A)) (UniProt Q6N021); assay: co-IP; reciprocal co-immunoprecipitation of endogenous proteins from human mammary epithelial cells MCF12A with anti-TET2 and anti-FOXP1, standard protocol, immunoblot

| Molecule | binding [1] | binding [2] |
| --- | --- | --- |
| Forkhead box protein P1 (FOXP1) (mouse, endogenous) (from UniProt P58462 1-705) | binds |  |
| B1 |  | binds |

From paper PMC7493981
